According to patent US9828389B2, “Tetrazolinone compounds and their use as pesticides” (SUMITOMO CHEMICAL COMPANY, LIMITED, priority 2012, dated 2017):
Like-named read-outs stand apart in the source and are kept apart here. Some results were stated once for a whole list of compounds, not compound by compound.

How the values were obtained:
Type in all cases: in vivo
[1] = test system: rice blast fungi (Magnaporthe grisea); conditions: rice (cv; Nipponbare), 6 days in contact with infected seedlings
[2] = test system: wheat rust fungi (Puccinia recondita); experiment: Wheat rust control test, foliar spray on wheat; conditions: wheat (cv; Shirogane), inoculated after 5 days, observed after 1+8 days
Protocol: The spores of wheat rust fungi (Puccinia recondita) were sprinkling-inoculated. After inoculation, the plants were placed under a dark and humid condition at 23° C. for 1 day and were then cultivated at 20° C. under lighting for 8 days and a lesion area was observed.

[3] = test system: tomato late blight fungi (Phytophthora infestans); conditions: tomato (cv; Patio), foliar spray 500 ppm, observed after 1+4 days

With `Cc1cnn(-c2ccc(OCc3c(C)cccc3-n3nnn(C)c3=O)c(C)c2)c1` [Present compound 24] as the compound, how does the “lesion area compared to the lesion area in untreated plants” value (“lesion area compared to the lesion area” below) ([1]; foliar spray 200 ppm) read?
The value was at most 30%.

What about the “lesion area compared to the lesion area” value ([2]; foliar spray 200 ppm) of the same compound?
Its value is at most 30%.

What about the “lesion area compared to the lesion area” value [3] of the same compound?
Its value is at most 30%.

For `CCn1ccc(-c2ccc(OCc3c(C)cccc3-n3nnn(C)c3=O)c(C)c2)n1` [Present compound 44, 1-{3-methyl-2-[2-methyl-4-(1-ethyl-1H-3-pyrazol-3-yl)-phenoxymethyl]-phenyl}-4-methyl-1,4-dihydrotetrazole-5-one], which “lesion area compared to the lesion area” value ([1]; foliar spray 500 ppm) is on record?
Its value is at most 30%.

And the “lesion area compared to the lesion area” value ([2]; foliar spray 500 ppm)?
The value was at most 30%.

And the “lesion area compared to the lesion area” value [3]?
The value was at most 30%.

What does the source list for `Cc1cc(-c2cc(C)n(C)n2)ccc1OCc1c(C)cccc1-n1nnn(C)c1=O` [Present compound 47, 1-{3-methyl-2-[2-methyl-4-(1,5-dimethyl-1H-pyrazol-3-yl)-phenoxymethyl]-phenyl}-4-methyl-1,4-dihydrotetrazole-5-one]?
lesion area compared to the lesion area in untreated plants ([1]; foliar spray 500 ppm): ≤ 30%; lesion area compared to the lesion area in untreated plants ([2]; foliar spray 500 ppm): ≤ 30%; lesion area compared to the lesion area in untreated plants [3]: ≤ 30%

What does the source list for `Cc1cc(-c2ccn(C(C)C)n2)ccc1OCc1c(C)cccc1-n1nnn(C)c1=O` [Present compound 48, 1-{3-methyl-2-[2-methyl-4-(1-isopropyl-1H-pyrazol-3-yl)-phenoxymethyl]-phenyl}-4-methyl-1,4-dihydrotetrazole-5-one]?
lesion area compared to the lesion area in untreated plants ([1]; foliar spray 500 ppm): ≤ 30%; lesion area compared to the lesion area in untreated plants ([2]; foliar spray 500 ppm): ≤ 30%; lesion area compared to the lesion area in untreated plants [3]: ≤ 30%

What does the source list for `CCc1cccc(-n2nnn(C)c2=O)c1COc1ccc(-n2ccc(C)n2)cc1C` [Present compound 52, 1-{3-ethyl-2-[2-methyl-4-(3-methyl-pyrazol-1-yl)-phenoxymethyl]-phenyl}-4-methyl-1,4-dihydrotetrazole-5-one]?
lesion area compared to the lesion area in untreated plants ([2]; foliar spray 500 ppm): ≤ 30%; lesion area compared to the lesion area in untreated plants [3]: ≤ 30%

What does the source list for `CCc1cccc(-n2nnn(C)c2=O)c1COc1ccc(-n2cc(C)c(C)n2)cc1C` [Present compound 53, 1-{3-ethyl-2-[2-methyl-4-(3,4-dimethyl-pyrazol-1-yl)-phenoxymethyl]-phenyl}-4-methyl-1,4-dihydrotetrazole-5-one]?
lesion area compared to the lesion area in untreated plants ([1]; foliar spray 500 ppm): ≤ 30%; lesion area compared to the lesion area in untreated plants ([2]; foliar spray 500 ppm): ≤ 30%; lesion area compared to the lesion area in untreated plants [3]: ≤ 30%

Which results are given for `CCc1cccc(-n2nnn(C)c2=O)c1COc1ccc(-c2ccn(C)n2)cc1C` [Present compound 57, 1-{3-ethyl-2-[2-methyl-4-(1-methyl-1H-pyrazol-3-yl)-phenoxymethyl]-phenyl}-4-methyl-1,4-dihydrotetrazole-5-one]?
lesion area compared to the lesion area in untreated plants ([1]; foliar spray 500 ppm): ≤ 30%; lesion area compared to the lesion area in untreated plants ([2]; foliar spray 500 ppm): ≤ 30%; lesion area compared to the lesion area in untreated plants [3]: ≤ 30%

With `CCc1cccc(-n2nnn(C)c2=O)c1COc1ccc(-c2cc(C)n(C)n2)cc1C` [Present compound 59, 1-{3-ethyl-2-[2-methyl-4-(1,5-dimethyl-1H-pyrazol-3-yl)-phenoxymethyl]-phenyl}-4-methyl-1,4-dihydrotetrazole-5-one] as the compound, how does the “lesion area compared to the lesion area” value ([1]; foliar spray 500 ppm) read?
Its value is at most 30%.

What about the “lesion area compared to the lesion area” value ([2]; foliar spray 500 ppm) of the same compound?
Its value is at most 30%.

What about the “lesion area compared to the lesion area” value [3] of the same compound?
Its value is at most 30%.

How did the “lesion area compared to the lesion area” value [3] turn out when `COc1cccc(-n2nnn(C)c2=O)c1COc1ccc(-c2ccn(C)n2)cc1Br` [Present compound 93, 1-{3-methoxy-2-[2-bromo-4-(1-methyl-1H-pyrazol-3-yl)-phenoxymethyl]-phenyl}-4-methyl-1,4-dihydrotetrazole-5-one] was run?
Its value is at most 30%.

`COc1cccc(-n2nnn(C)c2=O)c1COc1ccc(-c2ccn(CCC(C)C)n2)cc1C` [Present compound 100] was tested. Which “lesion area compared to the lesion area” value ([1]; foliar spray 200 ppm) did it give?
The value was at most 30%.

What about the “lesion area compared to the lesion area” value [3] of the same compound?
The value was at most 30%.

Which “lesion area compared to the lesion area” value ([1]; foliar spray 200 ppm) does the source give for `CSc1c(C)c(-c2ccc(OCc3c(Cl)cccc3-n3nnn(C)c3=O)c(C)c2)nn1C` [Present compound 258, 1-{3-chloro-2-{2-methyl-4-(1,4-dimethyl-5-methylthio-1H-pyrazol-3-yl)-phenoxymethyl]-phenyl}-4-methyl-1,4-dihydrotetrazole-5-one] here?
Its value is at most 30%.

And the “lesion area compared to the lesion area” value ([2]; foliar spray 200 ppm)?
The value was at most 30%.

With `COc1cccc(-n2nnn(C)c2=O)c1COc1ccc(-c2nn(C)c(SC)c2C)cc1C` [Present compound 259, 1-{3-methoxy-2-{2-methyl-4-(1,4-dimethyl-5-methylthio-1H-pyrazol-3-yl)-phenoxymethyl]-phenyl}-4-methyl-1,4-dihydrotetrazole-5-one] as the compound, how does the “lesion area compared to the lesion area” value ([1]; foliar spray 200 ppm) read?
The value was at most 30%.

What about the “lesion area compared to the lesion area” value ([2]; foliar spray 200 ppm) of the same compound?
The value was at most 30%.

Which “lesion area compared to the lesion area” value ([1]; foliar spray 200 ppm) does the source give for `CCc1cccc(-n2nnn(C)c2=O)c1COc1ccc(-c2nn(C)c(SC)c2C)cc1C` [Present compound 260] here?
Its value is at most 30%.

What about the “lesion area compared to the lesion area” value ([2]; foliar spray 200 ppm) of the same compound?
Its value is at most 30%.

For `Cc1cc(-c2nn(C)c(C#N)c2C)ccc1OCc1c(C)cccc1-n1nnn(C)c1=O` [Present compound 263, 1-{3-methyl-2-[2-methyl-4-(5-cyano-1,4-dimethyl-1H-pyrazol-3-yl)-phenoxymethyl]-phenyl}-4-methyl-1,4-dihydrotetrazole-5-one], which “lesion area compared to the lesion area” value ([1]; foliar spray 200 ppm) is on record?
The value was at most 30%.

And the “lesion area compared to the lesion area” value ([2]; foliar spray 200 ppm)?
The value was at most 30%.

For `Cc1cc(-n2nc(C)c(Cl)c2C)ccc1OCc1c(C)cccc1-n1nnn(C)c1=O` [Present compound 265, 1-{3-methyl-2-[2-methyl-4-(4-chloro-3,5-dimethyl-pyrazol-1-yl)-phenoxymethyl]-phenyl}-4-methyl-1,4-dihydrotetrazole-5-one], which “lesion area compared to the lesion area” value ([1]; foliar spray 200 ppm) is on record?
The value was at most 30%.

And the “lesion area compared to the lesion area” value ([2]; foliar spray 200 ppm)?
Its value is at most 30%.

Which results are given for `COc1c(C(F)F)c(-c2ccc(OCc3c(C)cccc3-n3nnn(C)c3=O)c(C)c2)nn1C` [Present compound 267, 1-{3-methyl-2-[2-methyl-4-(4-difluoromethyl-5-methoxy-1-methyl-1H-pyrazol-3-yl)-phenoxymethyl]-phenyl}-4-methyl-1,4-dihydrotetrazole-5-one]?
lesion area compared to the lesion area in untreated plants ([1]; foliar spray 200 ppm): ≤ 30%; lesion area compared to the lesion area in untreated plants ([2]; foliar spray 200 ppm): ≤ 30%

What does the source list for `Cc1cc(-c2ccn(CC3CC3)n2)ccc1OCc1c(C)cccc1-n1nnn(C)c1=O` [Present compound 272, 1-{3-methyl-2-[2-methyl-4-(1-cyclopropylmethyl-1H-pyrazol-3-yl)-phenoxymethyl]-phenyl}-4-methyl-1,4-dihydrotetrazole-5-one]?
lesion area compared to the lesion area in untreated plants ([1]; foliar spray 200 ppm): ≤ 30%; lesion area compared to the lesion area in untreated plants ([2]; foliar spray 200 ppm): ≤ 30%

`CCc1cccc(-n2nnn(C)c2=O)c1COc1ccc(-c2nn(C)c(C#N)c2C)cc1C` [Present compound 274, 1-{3-ethyl-2-[2-methyl-4-(5-cyano-1,4-dimethyl-1H-pyrazol-3-yl)-phenoxymethyl]-phenyl}-4-methyl-1,4-dihydrotetrazole-5-one] was tested. Which “lesion area compared to the lesion area” value ([1]; foliar spray 200 ppm) did it give?
Its value is at most 30%.

What about the “lesion area compared to the lesion area” value ([2]; foliar spray 200 ppm) of the same compound?
Its value is at most 30%.

Which “lesion area compared to the lesion area” value ([1]; foliar spray 200 ppm) does the source give for `Cc1cc(-c2ccn(CC(F)(F)F)n2)ccc1OCc1c(C)cccc1-n1nnn(C)c1=O` [Present compound 275, 1-(2-{4-[1-(2,2,2-trifluoroethyl)-1H-pyrazol-3-yl)-2-methyl-phenoxymethyl}-3-methyl-phenyl)-4-methyl-1,4-dihydrotetrazole-5-one] here?
Its value is at most 30%.

And the “lesion area compared to the lesion area” value ([2]; foliar spray 200 ppm)?
Its value is at most 30%.

`C#CCn1ccc(-c2ccc(OCc3c(C)cccc3-n3nnn(C)c3=O)c(C)c2)n1` [Present compound 276, 1-(2-{4-[1-(2-propynyl)-1H-pyrazol-3-yl)-2-methyl-phenoxymethyl]-3-methyl-phenyl)-4-methyl-1,4-dihydrotetrazole-5-one] was tested. Which “lesion area compared to the lesion area” value ([1]; foliar spray 200 ppm) did it give?
The value was at most 30%.

And the “lesion area compared to the lesion area” value ([2]; foliar spray 200 ppm)?
The value was at most 30%.

Which results are given for `CC#CCn1ccc(-c2ccc(OCc3c(C)cccc3-n3nnn(C)c3=O)c(C)c2)n1` [Present compound 277, 1-(2-{4-[1-(2-butynyl)-1H-pyrazol-3-yl)-2-methyl-phenoxymethyl]-3-methyl-phenyl)-4-methyl-1,4-dihydrotetrazole-5-one]?
lesion area compared to the lesion area in untreated plants ([1]; foliar spray 200 ppm): ≤ 30%; lesion area compared to the lesion area in untreated plants ([2]; foliar spray 200 ppm): ≤ 30%

`Cc1cc(-c2nn(C)c(C(N)=O)c2C)ccc1OCc1c(Cl)cccc1-n1nnn(C)c1=O` [Present compound 281, 1-{3-chloro-2-[2-methyl-4-(5-aminocarbonyl-1,4-dimethyl-1H-pyrazol-3-yl)-phenoxymethyl]-phenyl}-4-methyl-1,4-dihydrotetrazole-5-one] was tested. Which “lesion area compared to the lesion area” value ([1]; foliar spray 200 ppm) did it give?
Its value is at most 30%.

What about the “lesion area compared to the lesion area” value ([2]; foliar spray 200 ppm) of the same compound?
Its value is at most 30%.

For `Cc1cc(-n2nc(C)c(C#N)c2C)ccc1OCc1c(C)cccc1-n1nnn(C)c1=O` [Present compound 285, 3,5-Dimethyl-1-{3-methyl-4-[2-methyl-6-(4-methyl-5-oxo-4,5-dihydro-tetrazol-1-yl)-benzyloxy]-phenyl}-1H-pyrazole-4-carbonitrile], which “lesion area compared to the lesion area” value ([1]; foliar spray 200 ppm) is on record?
The value was at most 30%.

What about the “lesion area compared to the lesion area” value ([2]; foliar spray 200 ppm) of the same compound?
The value was at most 30%.

For `CCn1nc(-c2ccc(OCc3c(C)cccc3-n3nnn(C)c3=O)c(C)c2)c(C)c1C#N` [Present compound 292, 1-{3-methyl-2-[2-methyl-4-(5-cyano-1-ethyl-4-methyl-1H-pyrazol-3-yl)-phenoxymethyl]-phenyl}-4-methyl-1,4-dihydrotetrazole-5-one], which “lesion area compared to the lesion area” value ([1]; foliar spray 500 ppm) is on record?
The value was at most 30%.

And the “lesion area compared to the lesion area” value ([2]; foliar spray 500 ppm)?
Its value is at most 30%.
